Test results published in article PMC4281712, “ATPase-dependent auto-phosphorylation of the open condensin hinge diminishes DNA binding” (Open Biology, 2014).
No constants are given. Whether binding was seen depends on the method and setting. Binding seen in cells or lysates may run through a third protein. A result given as binding can be weak or reduced; the word gives no strength. Tags and fused reporters may be left off the sequences shown.

What follows are substances tested against T1, Cut14/SMC2 tagged with 3HA-His6 (wild type) (S. pombe) (UniProt P41003) (assay: co-purification by Ni affinity chromatography; Cut3 (wild type, mutant or truncated) and His6-tagged Cut14 overproduced together in S. pombe; complex isolated on Ni-beads through the polyhistidine tag; bands seen by SDS-PAGE with CBB or Ponceau S stain).
T1 sequence: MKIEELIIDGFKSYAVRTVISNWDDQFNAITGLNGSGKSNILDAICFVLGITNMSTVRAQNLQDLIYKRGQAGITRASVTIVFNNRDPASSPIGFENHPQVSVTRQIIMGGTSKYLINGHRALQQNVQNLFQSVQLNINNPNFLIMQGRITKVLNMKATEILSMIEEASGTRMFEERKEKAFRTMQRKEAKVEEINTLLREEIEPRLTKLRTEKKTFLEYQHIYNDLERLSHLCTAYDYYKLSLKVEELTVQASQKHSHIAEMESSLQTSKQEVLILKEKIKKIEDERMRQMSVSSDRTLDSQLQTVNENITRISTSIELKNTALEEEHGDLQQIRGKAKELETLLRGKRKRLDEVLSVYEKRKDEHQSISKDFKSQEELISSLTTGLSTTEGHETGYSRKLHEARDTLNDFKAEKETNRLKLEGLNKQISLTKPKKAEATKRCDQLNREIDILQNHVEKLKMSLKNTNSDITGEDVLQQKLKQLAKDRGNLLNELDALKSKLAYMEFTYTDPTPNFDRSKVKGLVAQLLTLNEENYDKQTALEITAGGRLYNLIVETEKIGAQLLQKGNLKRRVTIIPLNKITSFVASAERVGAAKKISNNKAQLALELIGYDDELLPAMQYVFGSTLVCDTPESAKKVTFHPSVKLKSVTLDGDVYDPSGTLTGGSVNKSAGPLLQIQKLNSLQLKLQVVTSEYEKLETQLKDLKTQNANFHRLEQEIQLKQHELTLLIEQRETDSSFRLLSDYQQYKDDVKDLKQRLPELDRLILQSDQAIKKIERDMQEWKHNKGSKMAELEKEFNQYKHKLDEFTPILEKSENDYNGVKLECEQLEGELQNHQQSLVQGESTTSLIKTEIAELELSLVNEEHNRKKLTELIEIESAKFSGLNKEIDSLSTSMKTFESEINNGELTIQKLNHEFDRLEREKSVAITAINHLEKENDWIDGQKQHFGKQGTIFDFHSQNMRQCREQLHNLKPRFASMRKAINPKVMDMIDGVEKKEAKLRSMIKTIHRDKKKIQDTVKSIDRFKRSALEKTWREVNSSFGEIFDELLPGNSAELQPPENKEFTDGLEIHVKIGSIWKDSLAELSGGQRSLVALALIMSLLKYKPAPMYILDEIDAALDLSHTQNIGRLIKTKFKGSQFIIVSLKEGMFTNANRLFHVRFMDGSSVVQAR

Row | binding | Substance
1 | binds | Cut3ΔNC (S. pombe) (domain or fragment)
2 | binds | Cut3ΔN (S. pombe) (domain or fragment)
3 | binds | Cut3ΔC (S. pombe) (domain or fragment)
